Data reported in publication PMC12084343.

Target: T1, Cyclin A (Drosophila) (UniProt P14785)
T1 sequence: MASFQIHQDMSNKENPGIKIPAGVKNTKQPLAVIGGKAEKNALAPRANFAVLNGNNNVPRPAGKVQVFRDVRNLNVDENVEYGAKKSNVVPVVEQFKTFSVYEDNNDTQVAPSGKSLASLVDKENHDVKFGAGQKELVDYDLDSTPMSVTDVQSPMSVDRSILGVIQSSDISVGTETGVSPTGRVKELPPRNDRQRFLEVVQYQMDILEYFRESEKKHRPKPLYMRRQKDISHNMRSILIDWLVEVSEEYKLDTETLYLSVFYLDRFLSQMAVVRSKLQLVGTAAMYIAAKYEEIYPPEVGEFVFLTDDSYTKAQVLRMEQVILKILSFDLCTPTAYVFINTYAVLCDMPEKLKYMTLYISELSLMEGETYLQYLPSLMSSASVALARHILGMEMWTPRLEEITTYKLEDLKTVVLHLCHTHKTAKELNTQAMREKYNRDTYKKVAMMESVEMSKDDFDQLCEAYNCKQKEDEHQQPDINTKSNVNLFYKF
Assay: affinity purification with mass spectrometry; immunoprecipitates from S2 cells expressing Meru^WT or Meru^RxL in the presence of Cdk1 and CycA; S-Trap digest, Orbitrap Eclipse, MaxQuant; duplicate samples

- binding: binds
Substance: Meru (full-length, wild-type) (Drosophila)

No constants are given. Whether binding was seen depends on the method and setting. Binding seen in cells or lysates may run through a third protein. Here binding means that the protein was enriched with, or labelled near, the bait; the list need not be complete.
